# Patent publication US20250283871A1, “COMPOSITIONS AND METHODS FOR MODULATING THE INTERACTION BETWEEN SS18-SSX FUSION ONCOPROTEIN AND NUCLEOSOMES” (Dana-Farber Cancer Institute, Inc., priority 2020, published 2025)
# B1: LUC7L3 (protein, UniProt O95232 1-432, looked up)
# Luc7-like protein 3: MISAAQLLDELMGRDRNLAPDEKRSNVRWDHESVCKYYLCGFCPAELFTNTRSDLGPCEKIHDENLRKQYEKSSRFMKVGYERDFLRYLQSLLAEVERRIRRGHARLALSQNQQSSGAAGPTGKNEEKIQVLTDKIDVLLQQIEELGSEGKVEEAQGMMKLVEQLKEERELLRSTTSTIESFAAQEKQMEVCEVCGAFLIVGDAQSRVDDHLMGKQHMGYAKIKATVEELKEKLRKRTEEPDRDERLKKEKQEREEREKEREREREERERKRRREEEEREKERARDRERRKRSRSRSRHSSRTSDRRCSRSRDHKRSRSRERRRSRSRDRRRSRSHDRSERKHRSRSRDRRRSKSRDRKSYKHRSKSRDREQDRKSKEKEKRGSDDKKSSVKSGSREKQSEDTNTESKESDTKNEVNGTSEDIKSEGDTQSN
# B2: EWSR1 (protein, UniProt Q01844 1-656, looked up)
# RNA-binding protein EWS: MASTDYSTYSQAAAQQGYSAYTAQPTQGYAQTTQAYGQQSYGTYGQPTDVSYTQAQTTATYGQTAYATSYGQPPTGYTTPTAPQAYSQPVQGYGTGAYDTTTATVTTTQASYAAQSAYGTQPAYPAYGQQPAATAPTRPQDGNKPTETSQPQSSTGGYNQPSLGYGQSNYSYPQVPGSYPMQPVTAPPSYPPTSYSSTQPTSYDQSSYSQQNTYGQPSSYGQQSSYGQQSSYGQQPPTSYPPQTGSYSQAPSQYSQQSSSYGQQSSFRQDHPSSMGVYGQESGGFSGPGENRSMSGPDNRGRGRGGFDRGGMSRGGRGGGRGGMGSAGERGGFNKPGGPMDEGPDLDLGPPVDPDEDSDNSAIYVQGLNDSVTLDDLADFFKQCGVVKMNKRTGQPMIHIYLDKETGKPKGDATVSYEDPPTAKAAVEWFDGKDFQGSKLKVSLARKKPPMNSMRGGLPPREGRGMPPPLRGGPGGPGGPGGPMGRMGGRGGDRGGFPPRGPRGSRGNPSGGGNVQHRAGDWQCPNPGCGNQNFAWRTECNQCKAPKPEGFLPPPFPPPGGDRGRGGPGGMRGGRGGLMDRGGPGGMFRGGRGGDRGGFRGGRGMDRGGFGGGRRGGPGGPPGPLMEQMGGRRGGRGGPGKMDKGEHRQERRDRPY
# B3: GNAT3 (protein, UniProt A8MTJ3 2-354, looked up)
# Guanine nucleotide-binding …: GSGISSESKESAKRSKELEKKLQEDAERDARTVKLLLLGAGESGKSTIVKQMKIIHKNGYSEQECMEFKAVIYSNTLQSILAIVKAMTTLGIDYVNPRSAEDQRQLYAMANTLEDGGMTPQLAEVIKRLWRDPGIQACFERASEYQLNDSAAYYLNDLDRITASGYVPNEQDVLHSRVKTTGIIETQFSFKDLHFRMFDVGGQRSERKKWIHCFEGVTCIIFCAALSAYDMVLVEDEEVNRMHESLHLFNSICNHKYFSTTSIVLFLNKKDIFQEKVTKVHLSICFPEYTGPNTFEDAGNYIKNQFLDLNLKKEDKEIYSHMTCATDTQNVKFVFDAVTDIIIKENLKDCGLF
# B4: ERMP1 (protein, UniProt Q7Z2K6 1-904, looked up)
# Endoplasmic reticulum …: MEWGSESAAVRRHRVGVERREGAAAAPPPEREARAQEPLVDGCSGGGRTRKRSPGGSGGASRGAGTGLSEVRAALGLALYLIALRTLVQLSLQQLVLRGAAGHRGEFDALQARDYLEHITSIGPRTTGSPENEILTVHYLLEQIKLIEVQSNSLHKISVDVQRPTGSFSIDFLGGFTSYYDNITNVVVKLEPRDGAQHAVLANCHFDSVANSPGASDDAVSCSVMLEVLRVLSTSSEALHHAVIFLFNGAEENVLQASHGFITQHPWASLIRAFINLEAAGVGGKELVFQTGPENPWLVQAYVSAAKHPFASVVAQEVFQSGIIPSDTDFRIYRDFGNIPGIDLAFIENGYIYHTKYDTADRILTDSIQRAGDNILAVLKHLATSDMLAAASKYRHGNMVFFDVLGLFVIAYPSRIGSIINYMVVMGVVLYLGKKFLQPKHKTGNYKKDFLCGLGITLISWFTSLVTVLIIAVFISLIGQSLSWYNHFYVSVCLYGTATVAKIILIHTLAKRFYYMNASAQYLGEVFFDISLFVHCCFLVTLTYQGLCSAFISAVWVAFPLLTKLCVHKDFKQHGAQGKFIAFYLLGMFIPYLYALYLIWAVFEMFTPILGRSGSEIPPDVVLASILAGCTMILSSYFINFIYLAKSTKKTMLTLTLVCAITFLLVCSGTFFPYSSNPANPKPKRVFLQHMTRTFHDLEGNAVKRDSGIWINGFDYTGISHITPHIPEINDSIRAHCEENAPLCGFPWYLPVHFLIRKNWYLPAPEVSPRNPPHFRLISKEQTPWDSIKLTFEATGPSHMSFYVRAHKGSTLSQWSLGNGTPVTSKGGDYFVFYSHGLQASAWQFWIEVQVSEEHPEGMVTVAIAAHYLSGEDKRSPQLDALKEKFPDWTFPSAWVCTYDLFVF
# B5: GNAT1 (protein, UniProt P11488 2-350, looked up)
# Guanine nucleotide-binding …: GAGASAEEKHSRELEKKLKEDAEKDARTVKLLLLGAGESGKSTIVKQMKIIHQDGYSLEECLEFIAIIYGNTLQSILAIVRAMTTLNIQYGDSARQDDARKLMHMADTIEEGTMPKEMSDIIQRLWKDSGIQACFERASEYQLNDSAGYYLSDLERLVTPGYVPTEQDVLRSRVKTTGIIETQFSFKDLNFRMFDVGGQRSERKKWIHCFEGVTCIIFIAALSAYDMVLVEDDEVNRMHESLHLFNSICNHRYFATTSIVLFLNKKDVFFEKIKKAHLSICFPDYDGPNTYEDAGNYIKVQFLELNMRRDVKEIYSHMTCATDTQNVKFVFDAVTDIIIKENLKDCGLF
# System: BAF complex subunits and histone proteins
# Experiment: Mass spectrometry proteomics of purified HA-SS18 WT and HA-SS18-SSX1 complexes (Tables 5A-5E)
# Set-up: species or system human
# Details: HA-SS18WT_CHR_peptides: protein identified in HA-SS18 WT BAF complex purification from nuclease-treated solubilized chromatin (CHR), HEK-293T
Molecule,Total (total peptides),Unique (unique peptides)
B1,1,1
B2,1,1
B3,1,1
B4,1,1
B5,1,1

# Same assay, conditions: HA-SS18WT_NE_peptides: proteins co-purified with HA-SS18 WT from nuclear extract (NE), HEK-293T
Molecule,Total (peptides),Unique (peptides)
B2,2,1
B4,2,1
